pIC50: −log10 of the molar value. Some of these results come from one statement about several compounds together.
Target: MEK enzyme
Experiment: MEK kinase inhibition (KinaseGlo luminescence)
Type: biochemical
Conditions: ERK substrate, 1% DMSO, read-out: MEK kinase inhibition activity of the compounds (IC50)

Question: With `Cc1c(=O)n(C)c(Nc2ccc(I)cc2F)c2c(=O)[nH]c(=O)n(-c3cccc(C4(C(N)=O)CC4)c3)c12` [Compound 77, 1-(3-(5-((2-fluoro-4-iodophenyl)amino)-6,8-dimethyl-2,4,7-trioxo-3,4,6,7-tetra hydropyrido[4,3-d]pyrimidin-1(2H)-yl)phenyl)cyclopropanecarboxamide] as the molecule, how does the pIC50 read?
Answer: The pIC50 was 6.30 to 9.00.

— US9428499B2, “Heterocyclyl compounds as MEK inhibitors” (LUPIN LIMITED, priority 2012, dated 2016)
